Assay results taken from paper PMC9495560.
No constants are given. Whether binding was seen depends on the method and setting. Binding seen in cells or lysates may run through a third protein. Some results given as binding are weak or reduced against the parent protein; the word gives no strength. Each block holds one molecule with its values, some of them ahead of it.

By UniProt entry, the sequences of proteins in these tests, tags left out. Residues count along the entry.
UniProt O95299, residues 36-355: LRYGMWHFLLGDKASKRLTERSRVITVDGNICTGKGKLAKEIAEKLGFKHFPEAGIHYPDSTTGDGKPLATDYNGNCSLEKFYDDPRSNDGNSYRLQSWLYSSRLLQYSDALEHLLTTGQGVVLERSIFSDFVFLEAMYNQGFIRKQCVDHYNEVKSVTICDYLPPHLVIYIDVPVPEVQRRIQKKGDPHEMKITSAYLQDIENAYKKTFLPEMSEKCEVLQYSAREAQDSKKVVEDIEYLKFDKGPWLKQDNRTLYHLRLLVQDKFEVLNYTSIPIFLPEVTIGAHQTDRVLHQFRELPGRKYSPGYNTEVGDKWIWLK

Assays:
[1] = biological target: T1, Sideroflexin 1 (SFXN1) (human (endogenous in MCF7, COV434, HCT116, SH-SY5Y)) (UniProt Q9H9B4); test: co-IP; data not shown; told in the paragraph on immunoblots of SFXN1 immunoprecipitates
T1 sequence: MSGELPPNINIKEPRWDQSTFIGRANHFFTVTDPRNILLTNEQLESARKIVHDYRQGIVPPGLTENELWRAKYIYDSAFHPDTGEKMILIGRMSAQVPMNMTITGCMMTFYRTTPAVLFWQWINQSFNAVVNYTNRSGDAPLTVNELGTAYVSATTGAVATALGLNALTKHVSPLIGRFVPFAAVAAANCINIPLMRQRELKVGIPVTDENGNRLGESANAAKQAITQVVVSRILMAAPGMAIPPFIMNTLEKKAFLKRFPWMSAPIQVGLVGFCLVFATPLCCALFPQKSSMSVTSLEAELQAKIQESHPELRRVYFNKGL

[2] = biological target: T1, Sideroflexin 1 (SFXN1) (human (endogenous in MCF7, COV434, HCT116, SH-SY5Y)); test: co-IP; endogenous SFXN1 precipitated with rabbit anti-SFXN1 from mitochondrial enriched fractions of MCF7, COV434, HCT116 and SH-SY5Y cells; immunoblot of the precipitate; rabbit IgG isotypic control
[3] = biological target: T1, Sideroflexin 1 (SFXN1) (human (endogenous in MCF7, COV434, HCT116, SH-SY5Y)); test: proximity ligation; Duolink In Situ Red kit on fixed, permeabilised MCF-7 cells; mouse anti-HSD10 and rabbit anti-SFXN1; control without primary antibodies

binding [1]: binds
Molecule: NDUFA10 (from UniProt O95299 36-355)

binding [2]: no binding
Molecule: β subunit of the F1F0 ATPase (ATP5B) (from UniProt P06576 48-529)

binding [2]: binds
binding [3]: binds
B1: 17β-hydroxysteroid dehydrogenase (17β-HSD10) (protein, UniProt Q99714 1-261)
chain: MAAACRSVKGLVAVITGGASGLGLATAERLVGQGASAVLLDLPNSGGEAQAKKLGNNCVFAPADVTSEKDVQTALALAKGKFGRVDVAVNCAGIAVASKTYNLKKGQTHTLEDFQRVLDVNLMGTFNVIRLVAGEMGQNEPDQGGQRGVIINTASVAAFEGQVGQAAYSASKGGIVGMTLPIARDLAPIGIRVMTIAPGLFGTPLLTSLPEKVCNFLASQVPFPSRLGDPAEYAHLVQAIIENPFLNGEVIRLDGAIRMQP
